The record followed here is publication PMC5864089.

The target in this assay is T1, LaminB (Drosophila (endogenous in OR embryos and Kc167 cells)) (UniProt P08928).
T1 sequence: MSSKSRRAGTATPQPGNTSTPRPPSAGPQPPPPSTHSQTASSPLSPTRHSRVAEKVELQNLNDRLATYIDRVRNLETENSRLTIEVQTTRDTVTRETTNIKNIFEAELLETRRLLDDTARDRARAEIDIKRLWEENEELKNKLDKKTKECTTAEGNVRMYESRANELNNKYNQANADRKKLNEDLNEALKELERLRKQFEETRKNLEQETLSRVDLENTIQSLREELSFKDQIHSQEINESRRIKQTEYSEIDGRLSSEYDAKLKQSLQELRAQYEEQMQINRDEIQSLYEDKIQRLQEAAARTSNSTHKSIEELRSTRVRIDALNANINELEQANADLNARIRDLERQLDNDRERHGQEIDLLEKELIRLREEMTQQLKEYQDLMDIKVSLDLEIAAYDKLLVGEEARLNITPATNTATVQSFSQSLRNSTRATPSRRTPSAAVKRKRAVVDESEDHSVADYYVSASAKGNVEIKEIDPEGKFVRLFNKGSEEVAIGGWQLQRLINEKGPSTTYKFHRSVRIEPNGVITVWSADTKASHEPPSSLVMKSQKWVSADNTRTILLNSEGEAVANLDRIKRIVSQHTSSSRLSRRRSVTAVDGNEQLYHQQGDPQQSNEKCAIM
The experiment in a line: co-IP; Kc nuclear extracts (sonicated) in IP buffer (50 mM Tris-HCl pH 7.4, 150 mM NaCl, 0.3 mM MgCl2, 0.3% Triton X-100); monoclonal anti-LaminB ADL67.10 1 h at 4°C, Protein G beads 2 h; control normal mouse serum/IgG; Western blotting. For orientation: Immunoblotting shows a protein as a band on a membrane.

These are yes or no findings as the source states them, for the method shown. In cells and extracts the contact can be indirect. Some binding calls cover weakened binding; strength is not graded here.

B1: Argonaute2 (protein, UniProt Q9VUQ5 1-1214)
chain: MGKKDKNKKGGQDSAAAPQPQQQQKQQQQRQQQPQQLQQPQQLQQPQQLQQPQQQQQQQPHQQQQQSSRQQPSTSSGGSRASGFQQGGQQQKSQDAEGWTAQKKQGKQQVQGWTKQGQQGGHQQGRQGQDGGYQQRPPGQQQGGHQQGRQGQEGGYQQRPPGQQQGGHQQGRQGQEGGYQQRPSGQQQGGHQQGRQGQEGGYQQRPPGQQQGGHQQGRQGQEGGYQQRPSGQQQGGHQQGRQGQEGGYQQRPPGQQQGGHQQGRQGQEGGYQQRPPGQQQGGHEQGRQGQEGGYQQRPSGQQQGGHQQGRQGQEGGYQQRPSGQQQGGHQQGRQGQEGGYQQRPSGQQQGGHQQGRQGQEGGYQQRPPGQQPNQTQSQGQYQSRGPPQQQQAAPLPLPPQPAGSIKRGTIGKPGQVGINYLDLDLSKMPSVAYHYDVKIMPERPKKFYRQAFEQFRVDQLGGAVLAYDGKASCYSVDKLPLNSQNPEVTVTDRNGRTLRYTIEIKETGDSTIDLKSLTTYMNDRIFDKPMRAMQCVEVVLASPCHNKAIRVGRSFFKMSDPNNRHELDDGYEALVGLYQAFMLGDRPFLNVDISHKSFPISMPMIEYLERFSLKAKINNTTNLDYSRRFLEPFLRGINVVYTPPQSFQSAPRVYRVNGLSRAPASSETFEHDGKKVTIASYFHSRNYPLKFPQLHCLNVGSSIKSILLPIELCSIEEGQALNRKDGATQVANMIKYAATSTNVRKRKIMNLLQYFQHNLDPTISRFGIRIANDFIVVSTRVLSPPQVEYHSKRFTMVKNGSWRMDGMKFLEPKPKAHKCAVLYCDPRSGRKMNYTQLNDFGNLIISQGKAVNISLDSDVTYRPFTDDERSLDTIFADLKRSQHDLAIVIIPQFRISYDTIKQKAELQHGILTQCIKQFTVERKCNNQTIGNILLKINSKLNGINHKIKDDPRLPMMKNTMYIGADVTHPSPDQREIPSVVGVAASHDPYGASYNMQYRLQRGALEEIEDMFSITLEHLRVYKEYRNAYPDHIIYYRDGVSDGQFPKIKNEELRCIKQACDKVGCKPKICCVIVVKRHHTRFFPSGDVTTSNKFNNVDPGTVVDRTIVHPNEMQFFMVSHQAIQGTAKPTRYNVIENTGNLDIDLLQQLTYNLCHMFPRCNRSVSYPAPAYLAHLVAARGRVYLTGTNRFLDLKKEYAKRTIVPEFMKKNPMYFV
As for B1, the binding entry is “binds”.
